Assay results taken from PMC5715595 (British Journal of Pharmacology, 2017).

Chains of the proteins cited; added tags and fusions are not shown.
UniProt Q14524, whole entry: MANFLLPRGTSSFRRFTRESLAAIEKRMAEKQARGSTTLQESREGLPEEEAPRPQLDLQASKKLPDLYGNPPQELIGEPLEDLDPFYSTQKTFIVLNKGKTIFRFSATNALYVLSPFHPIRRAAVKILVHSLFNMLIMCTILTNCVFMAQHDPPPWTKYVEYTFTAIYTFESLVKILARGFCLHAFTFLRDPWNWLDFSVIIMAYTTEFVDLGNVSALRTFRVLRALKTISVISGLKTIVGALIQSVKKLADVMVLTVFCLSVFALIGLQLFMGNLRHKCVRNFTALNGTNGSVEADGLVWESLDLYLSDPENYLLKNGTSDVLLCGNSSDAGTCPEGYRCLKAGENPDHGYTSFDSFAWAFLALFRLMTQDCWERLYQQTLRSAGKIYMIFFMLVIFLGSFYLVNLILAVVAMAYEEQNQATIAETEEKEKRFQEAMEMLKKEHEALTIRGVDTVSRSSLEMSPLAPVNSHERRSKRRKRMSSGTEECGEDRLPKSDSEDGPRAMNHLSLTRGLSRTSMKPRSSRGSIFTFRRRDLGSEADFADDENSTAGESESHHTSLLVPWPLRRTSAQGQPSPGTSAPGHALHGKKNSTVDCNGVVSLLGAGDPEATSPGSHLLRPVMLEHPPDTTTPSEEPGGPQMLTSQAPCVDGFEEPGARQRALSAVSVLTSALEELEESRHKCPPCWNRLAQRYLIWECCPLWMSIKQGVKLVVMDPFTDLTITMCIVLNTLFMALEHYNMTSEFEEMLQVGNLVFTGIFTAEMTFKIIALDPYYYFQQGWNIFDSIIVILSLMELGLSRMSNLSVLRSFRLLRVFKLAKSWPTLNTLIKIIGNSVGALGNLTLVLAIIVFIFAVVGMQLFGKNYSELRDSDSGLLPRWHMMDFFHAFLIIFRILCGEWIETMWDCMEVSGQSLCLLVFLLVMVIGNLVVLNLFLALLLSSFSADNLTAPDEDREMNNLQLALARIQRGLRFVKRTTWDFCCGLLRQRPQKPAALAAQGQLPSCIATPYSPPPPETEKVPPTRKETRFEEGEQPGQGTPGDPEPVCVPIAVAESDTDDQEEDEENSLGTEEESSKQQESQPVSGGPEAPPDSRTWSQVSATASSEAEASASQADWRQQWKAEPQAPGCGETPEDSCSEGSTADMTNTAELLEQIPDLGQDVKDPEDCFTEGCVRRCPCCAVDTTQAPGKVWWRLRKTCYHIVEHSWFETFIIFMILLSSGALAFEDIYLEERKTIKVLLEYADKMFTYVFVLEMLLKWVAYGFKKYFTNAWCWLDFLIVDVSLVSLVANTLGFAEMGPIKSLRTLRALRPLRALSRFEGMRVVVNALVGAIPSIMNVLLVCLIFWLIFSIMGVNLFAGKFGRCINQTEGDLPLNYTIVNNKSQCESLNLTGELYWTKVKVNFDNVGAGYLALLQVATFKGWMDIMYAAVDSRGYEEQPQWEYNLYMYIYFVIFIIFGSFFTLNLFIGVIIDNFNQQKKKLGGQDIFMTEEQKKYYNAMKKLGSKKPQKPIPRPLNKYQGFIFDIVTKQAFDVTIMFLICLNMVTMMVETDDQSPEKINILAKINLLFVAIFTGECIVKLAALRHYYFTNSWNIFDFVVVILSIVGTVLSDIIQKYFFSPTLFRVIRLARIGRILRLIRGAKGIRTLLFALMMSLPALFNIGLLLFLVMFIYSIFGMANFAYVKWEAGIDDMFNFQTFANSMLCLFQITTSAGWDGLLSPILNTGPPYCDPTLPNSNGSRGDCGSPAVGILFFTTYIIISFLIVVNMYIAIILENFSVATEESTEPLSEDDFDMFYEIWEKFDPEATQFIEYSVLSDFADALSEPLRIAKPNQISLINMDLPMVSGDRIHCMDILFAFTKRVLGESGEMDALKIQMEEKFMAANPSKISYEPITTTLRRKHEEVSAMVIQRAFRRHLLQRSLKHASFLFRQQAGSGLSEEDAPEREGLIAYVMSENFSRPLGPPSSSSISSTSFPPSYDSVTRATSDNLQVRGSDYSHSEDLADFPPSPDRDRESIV

What was measured:
Test in all cases: in vitro
Settings in all cases: pH 7.4
[1] = target: NaV1.5 (INa), fast inactivated state (Homo sapiens, UniProt Q14524)
Protocol: (§1) and CiPA Initiative Studies
(§2) =============================================================
(§3) In vitro studies on other ion channels […]
(§4) through NaV1.5, KV4.3, KV7.1/mink, Kir2.1, KV1.5, CaV1.2 and CaV3.2 channels.
(§5) 35-mm dish culture in the conditions mentioned in standard cell culture conditions. Experiments were performed with a cell density enabling isolated cells for patch clamping. Cells were continuously superfused with extracellular medium (1-2 mL∙minute-1) at room temperature.
(§6) D-glucose 10, HEPES 10 and the final pH adjusted to 7.4±0.02 with NaOH for recording NaV1.5, KV4.3, KV7.1/mink, Kir2.1, KV1.5 and CaV3.2 currents. It was (in mM): NaCl 110, KCl 4, BaCl2 20, MgCl2 1, D-glucose 20, HEPES 10 and the final pH adjusted to 7.4 ± 0.02 with NaOH for recording the CaV1.2 current. Compositions of the intracellular solution to fill the pipette are […]
(§7) Composition of intracellular solutions used to fill pipette to record currents through NaV1.5, KV4.3, KV7.1/mink, Kir2.1, KV1.5, CaV1.2 and CaV3.2 channels
(§8) Solution to fill the pipette (mM)
(§9) Creatine-phospho kinase 50 U∙mL-1
(§10) After formation of a Gigaohm seal between the patch electrodes and individual cells (pipette resistance range: 2.0 MΩ - 7.0 MΩ; seal resistance range: > 1 GΩ) the cell membrane across the pipette tip was ruptured to assure electrical access to the cell interior (whole-cell patch-configuration). In case the quality of the seal was poor, the process of seal formation was repeated with a different cell and a new pipette. As soon as a stable seal was established outward tail currents were measured upon pulses described in the Table S2. If current density was judged to be too low for measurement, another cell was recorded. […]
(§11) voltage stimulation protocol indicated in the next table continuously run until the steady-state level of block was reached.
(§12) Stimulation conditions used to record currents through NaV1.5, KV4.3, KV7.1/mink, Kir2.1, KV1.5, CaV1.2 and CaV3.2 channels
(§13) Ion channel Holding potential Pulse / duration Frequency Reference compound […]
(§14) (resting / fast / slow sweeps at one (10 mM) inactivated concentration)

[2] = target: NaV1.5 (INa), slow inactivated state (Homo sapiens, UniProt Q14524)
Protocol: as §1, §2, §3, §4, §5, §6, §7, §8, §9, §10, §11, §12, §13, §14

[3] = target: NaV1.5 (INa), resting state (Homo sapiens, UniProt Q14524)
Protocol: as §1, §2, §3, §4, §5, §6, §7, §8, §9, §10, §11, §12, §13, §14

## CCN(CC)CC(=O)Nc1c(C)cccc1C [Lidocaine, reference compound]
[1]
  inhibition at 10 mM: 99%
[2]
  inhibition at 10 mM: 93%
[3]
  inhibition at 10 mM: 99%
